No constants are given. Whether binding was seen depends on the method and setting. In cells and extracts the contact can be indirect. These calls come from enrichment with a bait or labelling near it, and not all partners need be listed.
T1: STING (bait of the mass spectrometry of STING-binding proteins) (UniProt Q3TBT3)
T1 sequence: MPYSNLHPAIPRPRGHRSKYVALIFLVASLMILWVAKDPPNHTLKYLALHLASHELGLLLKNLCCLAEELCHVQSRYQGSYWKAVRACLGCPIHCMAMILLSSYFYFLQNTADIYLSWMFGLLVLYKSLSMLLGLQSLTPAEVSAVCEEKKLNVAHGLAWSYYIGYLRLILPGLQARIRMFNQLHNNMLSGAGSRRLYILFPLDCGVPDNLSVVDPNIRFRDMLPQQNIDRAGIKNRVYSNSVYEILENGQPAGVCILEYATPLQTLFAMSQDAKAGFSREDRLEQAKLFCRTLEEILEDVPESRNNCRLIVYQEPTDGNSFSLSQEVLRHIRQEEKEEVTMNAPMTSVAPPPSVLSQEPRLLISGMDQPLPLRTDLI


Target: T1, STING (bait of the mass spectrometry of STING-binding proteins)
Assay: affinity purification with mass spectrometry; lysate (1% Triton X-100, 150 mM NaCl, pH 7.2) on anti-FLAG M2 Affinity Gel overnight at 4 °C, FLAG peptide elution, tryptic digest, LC-MS/MS

Row | binding | Binder
1 | binds | Smpd4 (protein, UniProt Q6ZPR5 1-823) MAFPHLQQPSFLLASLKADSINKPFAQRCQDLVKVIEDFPAKELHAVFPWLVESIFGSLDGVLVGWNLRCLQGRVNPVEYSTAMEFLDPSGPMMKLVYKLQAEDYNFDFPVSCLPGPVKASIQENVLPDSPLYHNKVQFPPTGGLGLNLALNPFEYYMFYFALSLISQKPMSMTLHVRTSDCAYFTLVDRYLSWFLPTEGSVPPPLCSSPGGSSPSPAPRTPAMPFASYGLHTSLLKRHISHQTSVNADPASHEIWRSETLLQVFVEMWLHHYSLEMYQKMQSPHAKLEVLHYRLTVSSALHSPAQPSLQALHAYQESFTPTEEHVLVVRLLLKHLHAFANSLKPDQASPSAHSHATSPLEEFKRAAVPRFVQQKLYVFLQHCFGHWPLDATFRAVLEMWLSYLQPWRYAPEKQAQGSDPQPRCVSEKWAPFIQENLLMYTKLFVSFLNRALRTDLVSPKNALMVFRVAKVFAQPNLAEMIQKGEQLFLEPELIIPHRQHRLFTVTTSFLSPWPPVVTDASFKVKSHVYSLEGQDCKYTPMFGPEIRTLVLRLAQLITQAKQTAKSISDQYVESPTGRSFLSWLTFGLTDTNSCYPANDLDEIGQDSIRKTDEYLEKALEYLRQIFRLSEAQLAQLTLALGSARDENGKQQLPDCIVGEEGLILTPLGRYQIINGLRRFEIEYQGDLELQPIRSYEITSLVRALFRLSSAINRRFAGQMAALCSRNDFLGSFCRYHLTEPALSNRHLLSPVGRRQVTNPARGPRLSLRFLGSYRTLLLLLMAFFVASLFCIGPLSCSLLLVLGYVLYAIAMTLLTERGKLHQL
2 | binds | Stt3b (protein, UniProt Q3TDQ1 1-823) MAEPSAPESKHKSSLNSSPWSGLMALGNSRHGHHGPGTQSASSAAAPKPGPPAGLSGGLSQPAGWQSLLSFTILFLAWLAGFSSRLFAVIRFESIIHEFDPWFNYRSTHHLASHGFYEFLNWFDERAWYPLGRIVGGTVYPGLMITAGLIHWILNTLNITVHIRDVCVFLAPTFSGLTSISTFLLTRELWNQGAGLLAACFIAIVPGYISRSVAGSFDNEGIAIFALQFTYYLWVKSVKTGSVFWTMCCCLSYFYMVSAWGGYVFIINLIPLHVFVLLLMQRYSKRVYIAYSTFYIVGLILSMQIPFVGFQPIRTSEHMAAAGVFALLQAYAFLQYLRDRLTKQEFQTLFFLGVSLAAGAVFLSVIYLTYTGYIAPWSGRFYSLWDTGYAKIHIPIIASVSEHQPTTWVSFFFDLHILVCTFPAGLWFCIKNINDERVFVALYAISAVYFAGVMVRLMLTLTPVVCMLSAIAFSNVFEHYLGDDMKRENPPVEDSSDEDDKRNPGNLYDKAGKVRKHVTEQEKPEEGLGPNIKSIVTMLMLMLLMMFAVHCTWVTSNAYSSPSVVLASYNHDGTRNILDDFREAYFWLRQNTDEHARVMSWWDYGYQIAGMANRTTLVDNNTWNNSHIALVGKAMSSNETAAYKIMRSLDVDYVLVIFGGVIGYSGDDINKFLWMVRIAEGEHPKDIREGDYFTQQGEFRVDKAGSPTLLNCLMYKMSYYRFGEMQLDFRTPPGFDRTRNAEIGNKDIKFKHLEEAFTSEHWLVRIYKVKAPDNRETLGHKPRVTNIVPKQKYLSKKTTKRKRGYVKNKLVFKKGKKTSKKTV

Source: article PMC7782846
